Experimental data reported in paper PMC9932102, “SVEP1 is an endogenous ligand for the orphan receptor PEAR1” (Nature Communications, 2023).

Sequences of proteins named here, by UniProt entry; tags and fusion partners are left off. Residues count along the entry.
UniProt A2AVA0, residues 18-3567: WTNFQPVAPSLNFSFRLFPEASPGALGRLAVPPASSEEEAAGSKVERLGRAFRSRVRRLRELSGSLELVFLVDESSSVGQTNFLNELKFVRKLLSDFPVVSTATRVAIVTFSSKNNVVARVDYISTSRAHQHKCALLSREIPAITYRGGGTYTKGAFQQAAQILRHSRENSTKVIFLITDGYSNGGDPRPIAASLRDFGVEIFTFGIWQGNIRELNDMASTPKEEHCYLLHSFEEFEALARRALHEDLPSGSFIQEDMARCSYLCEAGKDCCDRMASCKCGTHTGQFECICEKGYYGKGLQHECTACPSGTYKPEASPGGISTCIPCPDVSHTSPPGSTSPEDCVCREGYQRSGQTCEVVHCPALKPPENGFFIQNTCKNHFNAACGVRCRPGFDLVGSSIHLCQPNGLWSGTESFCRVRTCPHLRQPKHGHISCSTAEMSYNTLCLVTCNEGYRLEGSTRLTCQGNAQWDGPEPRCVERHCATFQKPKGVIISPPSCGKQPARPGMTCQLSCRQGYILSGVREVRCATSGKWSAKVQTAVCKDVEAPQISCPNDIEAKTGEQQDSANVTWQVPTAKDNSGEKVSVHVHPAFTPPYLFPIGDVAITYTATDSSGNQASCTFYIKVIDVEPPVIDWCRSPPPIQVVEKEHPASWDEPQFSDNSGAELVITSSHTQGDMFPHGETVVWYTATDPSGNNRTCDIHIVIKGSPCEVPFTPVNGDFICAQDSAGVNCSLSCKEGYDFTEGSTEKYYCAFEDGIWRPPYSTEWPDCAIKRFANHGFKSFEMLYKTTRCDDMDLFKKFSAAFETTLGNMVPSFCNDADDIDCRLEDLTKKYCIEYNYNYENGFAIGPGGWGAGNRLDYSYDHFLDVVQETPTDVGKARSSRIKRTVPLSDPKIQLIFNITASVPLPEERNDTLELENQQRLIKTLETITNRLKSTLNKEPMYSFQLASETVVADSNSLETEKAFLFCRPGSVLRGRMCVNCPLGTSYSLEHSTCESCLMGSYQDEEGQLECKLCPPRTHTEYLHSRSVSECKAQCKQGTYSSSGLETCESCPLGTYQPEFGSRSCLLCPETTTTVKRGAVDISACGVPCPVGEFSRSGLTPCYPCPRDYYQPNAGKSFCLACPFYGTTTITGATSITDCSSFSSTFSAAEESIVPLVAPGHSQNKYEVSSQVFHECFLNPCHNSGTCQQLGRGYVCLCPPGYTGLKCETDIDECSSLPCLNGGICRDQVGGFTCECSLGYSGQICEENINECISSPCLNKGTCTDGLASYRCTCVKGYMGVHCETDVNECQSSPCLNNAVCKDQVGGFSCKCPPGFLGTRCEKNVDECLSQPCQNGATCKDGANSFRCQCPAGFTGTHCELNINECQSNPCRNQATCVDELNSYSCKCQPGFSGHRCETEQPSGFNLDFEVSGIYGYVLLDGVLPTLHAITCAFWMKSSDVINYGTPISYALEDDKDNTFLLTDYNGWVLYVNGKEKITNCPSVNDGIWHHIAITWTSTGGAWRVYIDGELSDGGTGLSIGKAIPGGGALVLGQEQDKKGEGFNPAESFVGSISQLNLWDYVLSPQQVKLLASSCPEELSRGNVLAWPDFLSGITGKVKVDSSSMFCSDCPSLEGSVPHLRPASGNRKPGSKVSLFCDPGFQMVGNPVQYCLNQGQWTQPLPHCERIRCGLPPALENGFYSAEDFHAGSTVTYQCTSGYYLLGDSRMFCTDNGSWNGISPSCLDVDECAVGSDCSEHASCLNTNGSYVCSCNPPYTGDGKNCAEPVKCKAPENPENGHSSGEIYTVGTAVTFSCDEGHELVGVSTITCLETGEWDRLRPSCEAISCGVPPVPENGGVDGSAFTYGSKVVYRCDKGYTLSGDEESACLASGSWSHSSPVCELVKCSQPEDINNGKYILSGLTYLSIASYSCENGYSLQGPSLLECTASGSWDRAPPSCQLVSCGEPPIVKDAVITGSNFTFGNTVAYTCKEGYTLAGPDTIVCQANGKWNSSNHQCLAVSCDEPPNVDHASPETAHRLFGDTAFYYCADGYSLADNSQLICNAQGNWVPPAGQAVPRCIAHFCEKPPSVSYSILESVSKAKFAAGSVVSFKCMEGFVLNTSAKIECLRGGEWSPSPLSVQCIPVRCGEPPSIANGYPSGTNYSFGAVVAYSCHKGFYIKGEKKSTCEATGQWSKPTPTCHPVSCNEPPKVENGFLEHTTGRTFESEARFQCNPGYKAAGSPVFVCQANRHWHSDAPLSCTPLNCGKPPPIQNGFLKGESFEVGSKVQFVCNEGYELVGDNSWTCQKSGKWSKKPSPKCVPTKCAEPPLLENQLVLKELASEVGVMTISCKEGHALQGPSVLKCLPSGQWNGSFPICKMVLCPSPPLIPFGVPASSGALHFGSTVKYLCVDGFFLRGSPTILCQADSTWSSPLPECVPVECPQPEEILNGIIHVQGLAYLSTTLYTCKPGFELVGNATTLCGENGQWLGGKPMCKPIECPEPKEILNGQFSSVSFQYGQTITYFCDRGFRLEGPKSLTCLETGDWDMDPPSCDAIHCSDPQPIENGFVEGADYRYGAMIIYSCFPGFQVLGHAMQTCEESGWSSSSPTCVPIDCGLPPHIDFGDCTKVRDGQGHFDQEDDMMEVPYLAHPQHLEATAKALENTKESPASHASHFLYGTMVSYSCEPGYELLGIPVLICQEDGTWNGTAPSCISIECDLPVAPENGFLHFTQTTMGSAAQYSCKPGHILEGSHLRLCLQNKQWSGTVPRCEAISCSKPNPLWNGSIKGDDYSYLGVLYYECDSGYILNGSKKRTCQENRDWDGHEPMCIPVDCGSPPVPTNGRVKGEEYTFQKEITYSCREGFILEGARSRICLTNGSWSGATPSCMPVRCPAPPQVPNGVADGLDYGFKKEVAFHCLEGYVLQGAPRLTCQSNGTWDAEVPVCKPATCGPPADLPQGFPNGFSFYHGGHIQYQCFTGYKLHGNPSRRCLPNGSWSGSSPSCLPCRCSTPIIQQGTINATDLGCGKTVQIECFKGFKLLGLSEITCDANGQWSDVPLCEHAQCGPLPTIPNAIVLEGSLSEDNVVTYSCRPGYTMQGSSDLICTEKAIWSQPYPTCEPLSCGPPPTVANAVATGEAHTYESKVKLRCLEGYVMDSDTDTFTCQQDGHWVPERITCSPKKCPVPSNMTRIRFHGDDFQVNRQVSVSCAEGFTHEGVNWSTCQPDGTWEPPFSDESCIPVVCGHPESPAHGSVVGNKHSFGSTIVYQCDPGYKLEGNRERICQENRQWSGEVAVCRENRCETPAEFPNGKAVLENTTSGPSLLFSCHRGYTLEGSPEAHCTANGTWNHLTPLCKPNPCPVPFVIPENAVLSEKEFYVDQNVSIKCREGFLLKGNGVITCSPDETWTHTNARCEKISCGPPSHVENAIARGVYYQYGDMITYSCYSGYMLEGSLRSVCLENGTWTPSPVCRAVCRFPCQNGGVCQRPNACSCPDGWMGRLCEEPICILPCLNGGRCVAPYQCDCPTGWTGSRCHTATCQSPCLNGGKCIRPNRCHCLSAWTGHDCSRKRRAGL
UniProt P11276, residues 33-2477: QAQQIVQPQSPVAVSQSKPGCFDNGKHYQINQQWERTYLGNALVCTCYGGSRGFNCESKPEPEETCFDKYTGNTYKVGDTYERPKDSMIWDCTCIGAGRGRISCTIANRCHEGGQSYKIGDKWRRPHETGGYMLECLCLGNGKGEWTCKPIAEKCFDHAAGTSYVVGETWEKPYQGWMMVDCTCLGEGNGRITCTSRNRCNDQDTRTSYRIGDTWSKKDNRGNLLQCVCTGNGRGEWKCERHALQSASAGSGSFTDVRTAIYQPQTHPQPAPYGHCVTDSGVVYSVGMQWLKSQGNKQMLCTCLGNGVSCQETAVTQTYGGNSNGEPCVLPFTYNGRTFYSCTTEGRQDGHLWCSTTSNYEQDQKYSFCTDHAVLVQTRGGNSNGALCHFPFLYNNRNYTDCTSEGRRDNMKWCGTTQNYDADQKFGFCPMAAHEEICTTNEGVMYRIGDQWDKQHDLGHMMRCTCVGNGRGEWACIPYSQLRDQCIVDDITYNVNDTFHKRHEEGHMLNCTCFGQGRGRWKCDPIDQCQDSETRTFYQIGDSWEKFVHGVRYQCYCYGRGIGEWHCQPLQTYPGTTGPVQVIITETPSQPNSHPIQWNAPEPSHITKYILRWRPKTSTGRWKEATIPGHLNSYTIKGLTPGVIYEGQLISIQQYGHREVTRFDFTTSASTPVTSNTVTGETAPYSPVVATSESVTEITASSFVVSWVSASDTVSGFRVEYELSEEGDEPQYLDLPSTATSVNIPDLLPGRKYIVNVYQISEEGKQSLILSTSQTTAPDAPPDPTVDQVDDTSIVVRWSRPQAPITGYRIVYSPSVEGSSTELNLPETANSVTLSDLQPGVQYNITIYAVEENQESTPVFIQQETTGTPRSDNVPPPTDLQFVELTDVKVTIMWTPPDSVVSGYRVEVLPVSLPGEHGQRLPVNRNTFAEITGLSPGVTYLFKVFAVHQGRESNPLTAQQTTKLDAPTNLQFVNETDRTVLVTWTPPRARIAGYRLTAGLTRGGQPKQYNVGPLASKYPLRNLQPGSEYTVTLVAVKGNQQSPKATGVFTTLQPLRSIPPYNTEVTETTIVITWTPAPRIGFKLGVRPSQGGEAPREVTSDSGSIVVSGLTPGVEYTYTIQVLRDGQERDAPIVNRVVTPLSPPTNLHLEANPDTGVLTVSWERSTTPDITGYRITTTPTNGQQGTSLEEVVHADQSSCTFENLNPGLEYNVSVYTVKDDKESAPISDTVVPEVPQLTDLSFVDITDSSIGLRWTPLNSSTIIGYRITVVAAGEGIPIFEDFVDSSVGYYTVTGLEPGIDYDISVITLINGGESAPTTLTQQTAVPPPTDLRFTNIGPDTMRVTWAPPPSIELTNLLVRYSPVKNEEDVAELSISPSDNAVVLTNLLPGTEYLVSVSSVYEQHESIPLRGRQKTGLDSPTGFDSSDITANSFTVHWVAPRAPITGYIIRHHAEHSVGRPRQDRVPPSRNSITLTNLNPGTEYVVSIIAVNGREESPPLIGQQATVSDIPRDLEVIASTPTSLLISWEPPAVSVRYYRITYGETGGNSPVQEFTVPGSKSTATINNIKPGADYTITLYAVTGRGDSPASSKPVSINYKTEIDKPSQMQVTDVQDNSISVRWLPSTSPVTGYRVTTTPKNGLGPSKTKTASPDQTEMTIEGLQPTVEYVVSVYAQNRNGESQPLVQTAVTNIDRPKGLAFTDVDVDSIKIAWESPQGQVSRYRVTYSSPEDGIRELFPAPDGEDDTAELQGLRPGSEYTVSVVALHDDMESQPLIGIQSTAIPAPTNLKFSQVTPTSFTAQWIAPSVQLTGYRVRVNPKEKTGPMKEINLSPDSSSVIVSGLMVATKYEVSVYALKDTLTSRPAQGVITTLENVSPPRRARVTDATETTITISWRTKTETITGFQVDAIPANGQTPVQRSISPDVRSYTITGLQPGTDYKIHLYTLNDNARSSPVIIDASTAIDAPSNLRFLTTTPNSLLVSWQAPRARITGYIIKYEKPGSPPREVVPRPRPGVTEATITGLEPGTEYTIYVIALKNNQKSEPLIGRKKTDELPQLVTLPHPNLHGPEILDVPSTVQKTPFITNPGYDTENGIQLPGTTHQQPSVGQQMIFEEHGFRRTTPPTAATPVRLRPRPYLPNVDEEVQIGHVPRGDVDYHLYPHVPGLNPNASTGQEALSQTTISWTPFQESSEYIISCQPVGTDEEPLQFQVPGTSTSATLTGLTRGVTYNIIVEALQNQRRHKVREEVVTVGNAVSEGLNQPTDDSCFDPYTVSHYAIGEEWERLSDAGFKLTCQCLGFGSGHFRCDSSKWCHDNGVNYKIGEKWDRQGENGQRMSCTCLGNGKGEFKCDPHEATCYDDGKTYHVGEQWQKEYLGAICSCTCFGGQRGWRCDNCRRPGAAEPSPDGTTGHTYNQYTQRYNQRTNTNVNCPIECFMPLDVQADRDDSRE

Key:
[1] = target: SVEP1 miniTurbo fusion protein (SVEP1-mTID) (mouse) (UniProt A2AVA0); assay: proximity labelling; recombinant SVEP1-mTID (SVEP1-Myc as control) added to enriched VSMC media with 500 uM biotin and 1 mM ATP for 4 h; streptavidin magnetic beads; UPLC-Orbitrap; two experiments; only the target purified
[2] = target: recombinant, Myc-tagged SVEP1 (Sushi, von Willebrand factor type A, EGF and pentraxin domain containing 1) (mouse) (UniProt A2AVA0); assay: affinity purification with mass spectrometry; recombinant Myc-tagged SVEP1 added for 1 h to enriched serum-free media of murine VSMCs; anti-c-Myc magnetic beads, 0.05% Tween 20, 4 C; on-bead digestion, UPLC-timsTOF; two experiments; only the target purified

Row | Molecule | binding [1] | binding [2]
1 | Basement membrane-specific heparan sulfate proteoglycan core protein (from UniProt Q05793 22-3707) | binds | binds
2 | Fibronectin (from UniProt P11276 33-2477) | binds | binds
3 | Laminin subunit gamma-1 (from UniProt P02468 34-1607) | binds | binds
4 | Nidogen-1 (protein, UniProt P10493 29-1245) LNRQELFPFGPGQGDLELEAGDDVVSPSLELIGELSFYDRTDITSVYVTTNGIIAMSEPPATEYHPGTFPPSFGSVAPFLADLDTTDGLGNVYYREDLSPFIIQMAAEYVQRGFPEVSFQPTSVVVVTWESVAPYGGPSSSPAEEGKRNTFQAVLASSNSSSYAIFLYPEDGLQFFTTFSKKDESQVPAVVGFSKGLVGFLWKSNGAYNIFANDRESIENLAKSSNAGHQGVWVFEIGSPATAKGVVSADVNLDLDDDGADYEDEDYDLVTSHLGLEDVATPSPSHSPRRGYPDPHNVPRILSPGYEATERPRGVPTERTRSFQLPAERFPQHHPQVIDVDEVEETGVVFSYNTGSQQTCANNRHQCSVHAECRDYATGFCCRCVANYTGNGRQCVAEGSPQRVNGKVKGRIFVGSSQVPVVFENTDLHSYVVMNHGRSYTAISTIPETVGYSLLPLAPIGGIIGWMFAVEQDGFKNGFSITGGEFTRQAEVTFLGHPGKLVLKQQFSGIDEHGHLTISTELEGRVPQIPYGASVHIEPYTELYHYSSSVITSSSTREYTVMEPDQDGAAPSHTHIYQWRQTITFQECAHDDARPALPSTQQLSVDSVFVLYNKEERILRYALSNSIGPVRDGSPDALQNPCYIGTHGCDSNAACRPGPGTQFTCECSIGFRGDGQTCYDIDECSEQPSRCGNHAVCNNLPGTFRCECVEGYHFSDRGTCVAAEDQRPINYCETGLHNCDIPQRAQCIYMGGSSYTCSCLPGFSGDGRACRDVDECQHSRCHPDAFCYNTPGSFTCQCKPGYQGDGFRCMPGEVSKTRCQLEREHILGAAGGADAQRPTLQGMFVPQCDEYGHYVPTQCHHSTGYCWCVDRDGRELEGSRTPPGMRPPCLSTVAPPIHQGPVVPTAVIPLPPGTHLLFAQTGKIERLPLERNTMKKTEAKAFLHIPAKVIIGLAFDCVDKVVYWTDISEPSIGRASLHGGEPTTIIRQDLGSPEGIALDHLGRTIFWTDSQLDRIEVAKMDGTQRRVLFDTGLVNPRGIVTDPVRGNLYWTDWNRDNPKIETSHMDGTNRRILAQDNLGLPNGLTFDAFSSQLCWVDAGTHRAECLNPAQPGRRKVLEGLQYPFAVTSYGKNLYYTDWKTNSVIAMDLAISKEMDTFHPHKQTRLYGITIALSQCPQGHNYCSVNNGGCTHLCLPTPGSRTCRCPDNTLGVDCIERK | binds | binds

Results are given in words; binding and its absence hold for the method and conditions named. In cells and extracts the contact can be indirect. A yes stands for co-enrichment or nearness to the bait. Other partners may have been found.
